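A panel of P. falciparum strains inside erythrocytes is exposed to compounds for three days, then a DNA-binding dye reports the amount of parasite DNA. Each compound was titrated across a series from about 0.000037 to 29 µM. The number is the fitted AC50, the concentration giving a half-maximal change in signal; a lower value means higher potency, whether the curve shows a decrease or an increase. Calls follow the curve class and fit quality: every row here is inconclusive, covering signal-raising curves and weak, poorly fitted, partial or highest-dose-only inhibition curves.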

Values are in nM. Every entry below has the call inconclusive. Only part of the assay is shown, chiefly results filed as inconclusive. Potencies fitted to partial, single-point or poorly fitting curves are rough.

Compound | tested on / at | potency (nM) | remark
C[C@]12C=CC(=O)C=C1CC[C@@H]1[C@@H]2CC[C@@]2(C)[C@H]1CC[C@]2(C)O | CP194 | 19011 | inhibitor, single point
C[C@]12C=CC(=O)C=C1CC[C@@H]1[C@@H]2CC[C@@]2(C)[C@H]1CC[C@]2(C)O | CP203 | 13459 | inhibitor, single point
C[C@]12C=CC(=O)C=C1CC[C@@H]1[C@@H]2CC[C@@]2(C)[C@H]1CC[C@]2(C)O | CP192 | 10690 | inhibitor, partial curve
C[C@]12C=CC(=O)C=C1CC[C@@H]1[C@@H]2CC[C@@]2(C)[C@H]1CC[C@]2(C)O | CP269 | 19011 | inhibitor, single point
C[C@]12C=CC(=O)C=C1CC[C@@H]1[C@@H]2CC[C@@]2(C)[C@H]1CC[C@]2(C)O | CP291 | 16944 | inhibitor, single point
C[C@]12C=CC(=O)C=C1CC[C@@H]1[C@@H]2CC[C@@]2(C)[C@H]1CC[C@]2(C)O | PC26 | 19011 | inhibitor, single point
C[C@]12C=CC(=O)C=C1CC[C@@H]1[C@@H]2CC[C@@]2(C)[C@H]1CC[C@]2(C)O | CP268 | 19011 | inhibitor, single point
C[C@]12C=CC(=O)C=C1CC[C@@H]1[C@@H]2CC[C@@]2(C)[C@H]1CC[C@]2(C)O | DIV14 | 19011 | inhibitor, single point
C[C@]12C=CC(=O)C=C1CC[C@@H]1[C@@H]2CC[C@@]2(C)[C@H]1CC[C@]2(C)O | CP329 | 16944 | inhibitor, single point
C[C@]12C=CC(=O)C=C1CC[C@@H]1[C@@H]2CC[C@@]2(C)[C@H]1CC[C@]2(C)O | CP266 | 19011 | inhibitor, single point
C[C@]12C=CC(=O)C=C1CC[C@@H]1[C@@H]2CC[C@@]2(C)[C@H]1CC[C@]2(C)O | DIV17 | 19011 | inhibitor, single point
C[C@]12C=CC(=O)C=C1CC[C@@H]1[C@@H]2CC[C@@]2(C)[C@H]1CC[C@]2(C)O | CP305 | 13459 | inhibitor, single point
C[C@]12C=CC(=O)C=C1CC[C@@H]1[C@@H]2CC[C@@]2(C)[C@H]1CC[C@]2(C)O | CP211 | 19011 | inhibitor, single point
C[C@]12C=CC(=O)C=C1CC[C@@H]1[C@@H]2CC[C@@]2(C)[C@H]1CC[C@]2(C)O | CP215 | 13459 | inhibitor, single point
C[C@]12C=CC(=O)C=C1CC[C@@H]1[C@@H]2CC[C@@]2(C)[C@H]1CC[C@]2(C)O | CP315 | 19011 | inhibitor, single point
C[C@@H]1C[C@H]2[C@H]3C[C@@H](F)C4=CC(=O)C=C[C@]4(C)[C@@]3(Cl)[C@@H](O)C[C@@]2(C)[C@@H]1C(=O)COC(=O)C(C)(C)C | HB3 | 11220 | inhibitor, single point
C[C@@H]1C[C@H]2[C@H]3C[C@@H](F)C4=CC(=O)C=C[C@]4(C)[C@@]3(Cl)[C@@H](O)C[C@@]2(C)[C@@H]1C(=O)COC(=O)C(C)(C)C | TAB109 | 5012 | inhibitor, single point
C[C@@H]1C[C@H]2[C@H]3C[C@@H](F)C4=CC(=O)C=C[C@]4(C)[C@@]3(Cl)[C@@H](O)C[C@@]2(C)[C@@H]1C(=O)COC(=O)C(C)(C)C | CP268 | 2133 | inhibitor, partial curve, poor fit
C[C@@H]1C[C@H]2[C@H]3C[C@@H](F)C4=CC(=O)C=C[C@]4(C)[C@@]3(Cl)[C@@H](O)C[C@@]2(C)[C@@H]1C(=O)COC(=O)C(C)(C)C | TAB113 | 3981 | inhibitor, single point
C[C@@H]1C[C@H]2[C@H]3C[C@@H](F)C4=CC(=O)C=C[C@]4(C)[C@@]3(Cl)[C@@H](O)C[C@@]2(C)[C@@H]1C(=O)COC(=O)C(C)(C)C | CP237 | 11220 | inhibitor, single point
C[C@@H]1C[C@H]2[C@H]3C[C@@H](F)C4=CC(=O)C=C[C@]4(C)[C@@]3(Cl)[C@@H](O)C[C@@]2(C)[C@@H]1C(=O)COC(=O)C(C)(C)C | DIV17 | 95.3 | inhibitor, partial curve, poor fit
C[C@@H]1C[C@H]2[C@H]3C[C@@H](F)C4=CC(=O)C=C[C@]4(C)[C@@]3(Cl)[C@@H](O)C[C@@]2(C)[C@@H]1C(=O)COC(=O)C(C)(C)C | CP286 | 10000 | inhibitor, single point
C[C@@H]1C[C@H]2[C@H]3C[C@@H](F)C4=CC(=O)C=C[C@]4(C)[C@@]3(Cl)[C@@H](O)C[C@@]2(C)[C@@H]1C(=O)COC(=O)C(C)(C)C | PC15 | 7943 | inhibitor, partial curve
Oc1c(Cl)cc(Cl)c2cccnc12 | DIV17 | 19011 | inhibitor, single point
Oc1c(Cl)cc(Cl)c2cccnc12 | DIV14 | 16944 | inhibitor, single point
Oc1c(Cl)cc(Cl)c2cccnc12 | SC27B | 10000 | inhibitor, single point

The last 2 entries again:

- Oc1c(Cl)cc(Cl)c2cccnc12 [DIV14] | potency 16944 nM (inhibitor, single point)
- Oc1c(Cl)cc(Cl)c2cccnc12 [SC27B] | potency 10000 nM (inhibitor, single point)

Data taken from PubChem BioAssay AID504749, deposited by NCATS (2011).